Source: PubChem BioAssay AID1259274 (Sanger Institute, 2017)
Screen: 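siRNA screen of kinases for partners that act in synergy with targeted drugs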 (primary screen). Cells: human RKO colorectal cancer cells. Reagent: siRNA pool against human genes. Conditions: anchor drugs BYL719 at 1 µM, cetuximab at 5 µg/ml or trametinib at 10 nM; DMSO vehicle as the no-drug arm. Read-out: 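Viability of cells versus control pool 2 (non-targeting) averaged across replicates; knock-down-only robust z-score; for every anchor drug (BYL719, cetuximab, trametinib) a synergy score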. Scale: viability z-score, siRNA alone: higher = more viable cells; low values mean essential gene; viability, siRNA alone, vehicle: higher = more viable cells; synergy score with BYL719 and synergy score with Trametinib and synergy score with Cetuximab: higher = stronger combined killing with the drug. Rule for the call: 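a single knock-down scoring under -3 on the robust z-score, meaning fewer cells, counts as essential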. Calls: active = essential when knocked down alone; inactive = no change alone.
The deposit covers 794 reagents; this is a part drawn at random. 11 of all reagents (1.4%) count as active. 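Calls rest on knock-down without drug only; synergy scores with anchor drugs were not used for the essential call.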 Viability is capped at 1. Reagent sequences are not shown. Not given: the amount of reagent, the time to read-out.

| gene symbol | viability z-score, siRNA alone | viability, siRNA alone, vehicle (fraction of control) | synergy score with BYL719 | synergy score with Trametinib | synergy score with Cetuximab | Outcome |
| --- | --- | --- | --- | --- | --- | --- |
| WEE1 | -1.79 | 0.745 | 0.109 | 0.0111 | 0.0267 | inactive |
| CDK11B | -2.13 | 0.715 | -0.0991 | -0.174 | -0.137 | inactive |
| MAP3K10 | 1.19 | 1 | -0.132 | -0.171 | 0 | inactive |
| SPHK1 | 1.19 | 1 | -0.0793 | -0.0783 | 0 | inactive |
| CDK5R2 | 0.965 | 0.981 | -0.0131 | 0.0199 | 0.137 | inactive |
| CDK15 | 1.19 | 1 | 0.0106 | -0.0894 | 0.0284 | inactive |
| ACSL6 | 0.207 | 0.916 | -0.118 | -0.141 | 0.032 | inactive |
| MAST4 | 1.19 | 1 | 0.0185 | -0.135 | 0.108 | inactive |
| RPS6KA2 | -1.25 | 0.791 | -0.0515 | -0.0353 | 0.0399 | inactive |
| CDK9 | 1.19 | 1 | -0.108 | -0.039 | 0.0127 | inactive |
| PIM2 | 0.947 | 0.979 | -0.022 | -0.111 | 0.0548 | inactive |
| NEK11 | -0.789 | 0.83 | 0.019 | -0.141 | -0.0527 | inactive |
| ADCK5 | 0.276 | 0.922 | -0.0713 | -0.234 | -0.0784 | inactive |
| CIT | -0.548 | 0.851 | -0.0283 | 0.0165 | -0.0767 | inactive |
| MAP3K20 | 0.512 | 0.942 | -0.124 | -0.216 | -0.039 | inactive |
| CKS1B | -0.512 | 0.854 | -0.028 | -0.146 | -0.146 | inactive |
| BLK | 1.19 | 1 | -0.13 | -0.0304 | 0.0108 | inactive |
| TYRO3 | 0.9 | 0.975 | -0.0214 | -0.0688 | 0.0213 | inactive |
| STYK1 | -0.41 | 0.863 | -0.00806 | -0.119 | -0.0214 | inactive |
| EFNB3 | 0.141 | 0.91 | -0.0197 | -0.264 | -0.00951 | inactive |
| PINK1 | -0.402 | 0.864 | -0.049 | -0.16 | -0.136 | inactive |
| GUCY2C | -1.02 | 0.81 | -0.0329 | -0.231 | -0.0492 | inactive |
| EPHA5 | 0.942 | 0.979 | 0.0845 | -0.141 | -0.0163 | inactive |
| LRRK1 | 1.04 | 0.987 | 0.139 | -0.162 | -0.0131 | inactive |
| FYN | 0.278 | 0.922 | -0.0363 | -0.165 | -0.0246 | inactive |
| MPP3 | -0.564 | 0.85 | 0.0421 | -0.0501 | 0.102 | inactive |
| MAPK3 | -0.718 | 0.836 | -0.0844 | -0.141 | -0.0244 | inactive |
| TP53BP1 | 0.257 | 0.92 | -0.0352 | -0.0955 | -0.0608 | inactive |
| DYRK1A | -0.163 | 0.884 | -0.0519 | -0.0711 | 0.0282 | inactive |
| AKAP9 | 0.56 | 0.946 | -0.0556 | -0.144 | 0.0432 | inactive |
| EPHB2 | 0.196 | 0.915 | -0.0855 | -0.181 | -0.027 | inactive |
| TGFBR3 | 0.155 | 0.911 | -0.0625 | -0.295 | -0.0887 | inactive |
| MYO3A | -1.01 | 0.811 | -0.12 | -0.222 | -0.0368 | inactive |
| PFKFB1 | 0.403 | 0.933 | -0.0547 | -0.0697 | -0.0675 | inactive |
| ULK1 | 0.0497 | 0.902 | -0.0601 | -0.11 | -0.0299 | inactive |
| FGFRL1 | 1.19 | 1 | 0.102 | -0.181 | 0.0353 | inactive |
| PRKD3 | -0.701 | 0.838 | -0.217 | -0.0242 | -0.0426 | inactive |
| AMHR2 | 1.19 | 1 | 0.0442 | -0.128 | 0 | inactive |
| ROCK1 | 0.596 | 0.949 | -0.213 | -0.0812 | -0.0509 | inactive |
| PRKCB | 0.411 | 0.933 | 0.0231 | -0.0585 | 0.051 | inactive |
| KMT2B | -1.34 | 0.783 | -0.119 | -0.102 | -0.183 | inactive |
| BMX | 0.388 | 0.931 | -0.228 | -0.419 | 0.0368 | inactive |
| PAK5 | 0.378 | 0.93 | -0.0354 | -0.139 | 0.0155 | inactive |
| INSR | 0.175 | 0.913 | -0.153 | -0.116 | 0.0513 | inactive |
| NTRK3 | 1.19 | 1 | -0.0375 | -0.255 | 0 | inactive |
| SRP72 | -0.765 | 0.832 | -0.138 | -0.152 | -0.166 | inactive |
| BRSK2 | 1.19 | 1 | -0.0149 | -0.0716 | 0.0416 | inactive |
| TESK2 | -0.525 | 0.853 | -0.0576 | -0.267 | 0.0501 | inactive |
| PIK3C2B | 0.404 | 0.933 | -0.0356 | -0.175 | -0.0426 | inactive |
| WT1 | 0.318 | 0.925 | -0.0941 | -0.181 | -0.0748 | inactive |
